Assay results from the supplement of paper PMC6078165.
The reference is the same well before dosing, and untreated signal decays as well.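 Labels refer to human fibroblasts, largely primary: uterine (C12385, HUF), lung (H6013), bone (Hs27A), adrenal (HADF), skin (WS1), plus mammary HMF and breast cancer-associated Hs343T. Cancer lines are basal-like or mesenchymal-like triple-negative breast cancer. The paper counts as hits responses shifting over 3x the replicate standard deviation. The tissue of the other fibroblasts is not given here.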

Test system: Hs578T
Assay: relative JC-1 red fluorescence (viability) vs pre-drug, coculture with fibroblast (fraction); higher = more viable cancer cells
Description: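 JC-1 labelled TNBC cells cocultured 1:1 (1,500 cells each) with CellTrace Violet stained primary or stromal fibroblasts in 384-well plates in FluoroBrite medium, treated with one of 42 anticancer drugs at 0.1, 1, 10 or 100 uM. JC-1 red fluorescence (mitochondrial integrity in cancer cells only) was read by plate reader every 8 h for 72 h. Values are normalised to each well's pre-drug value. The stock of one drug was tenfold lower, so its dose labels may be too high.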

CC(=O)O[C@@]12CO[C@@H]1C[C@H](O)[C@@]1(C)C(=O)[C@H](O)C3=C(C)[C@@H](OC(=O)[C@H](O)[C@@H](NC(=O)OC(C)(C)C)c4ccccc4)C[C@@](O)([C@@H](OC(=O)c4ccccc4)[C@H]21)C3(C)C [Docetaxel]
relative JC-1 red fluorescence
Conditions	8 h	16 h	24 h	32 h	40 h	48 h	56 h	64 h	72 h
0.1 µM	0.911	0.798	0.703	0.606	0.506	0.473	0.471	0.453	0.466
1 µM	0.875	0.717	0.6968	0.663	0.609	0.581	0.585	0.569	0.583

relative JC-1 red fluorescence
Conditions	8 h	16 h	24 h	32 h	40 h	48 h	56 h	64 h	72 h
0.1 µM, coculture fibroblast: C12385	0.833	0.692	0.634	0.512	0.428	0.393	0.37	0.379	0.395
0.1 µM, coculture fibroblast: H6013	0.8282	0.8039	0.744	0.666	0.613	0.611	0.607	0.63	0.629
0.1 µM, coculture fibroblast: H6019	0.761	0.661	0.644	0.548	0.513	0.5	0.483	0.492	0.487
0.1 µM, coculture fibroblast: H6076	0.893	0.823	0.698	0.609	0.53	0.513	0.506	0.508	0.523
0.1 µM, coculture fibroblast: H6231	0.911	0.82	0.73	0.668	0.578	0.554	0.5273	0.517	0.5233
0.1 µM, coculture fibroblast: HADF	0.856	0.745	0.648	0.547	0.48	0.4595	0.4391	0.4448	0.437
0.1 µM, coculture fibroblast: HCFa	0.8146	0.7553	0.669	0.545	0.473	0.458	0.439	0.44	0.426
0.1 µM, coculture fibroblast: HCPF	0.865	0.7861	0.7274	0.677	0.593	0.577	0.575	0.555	0.554
0.1 µM, coculture fibroblast: HHSteC	0.873	0.76	0.664	0.54	0.457	0.427	0.407	0.4	0.381
0.1 µM, coculture fibroblast: HMF	0.822	0.735	0.658	0.602	0.503	0.477	0.462	0.457	0.457
0.1 µM, coculture fibroblast: HPFa	0.93	0.86	0.772	0.632	0.551	0.522	0.494	0.486	0.463
0.1 µM, coculture fibroblast: HUF	0.8955	0.7484	0.7379	0.6197	0.555	0.539	0.523	0.537	0.546
0.1 µM, coculture fibroblast: Hs27A	0.884	0.785	0.677	0.561	0.489	0.49	0.478	0.49	0.476
0.1 µM, coculture fibroblast: Hs343T	0.866	0.758	0.698	0.632	0.529	0.505	0.481	0.477	0.494
0.1 µM, coculture fibroblast: WS1	0.821	0.699	0.649	0.539	0.449	0.421	0.392	0.4	0.408
1 µM, coculture fibroblast: C12385	0.8385	0.733	0.658	0.533	0.446	0.405	0.388	0.395	0.404
1 µM, coculture fibroblast: H6013	0.882	0.8037	0.779	0.72	0.679	0.688	0.689	0.71	0.701
1 µM, coculture fibroblast: H6019	0.783	0.64	0.664	0.57	0.557	0.551	0.541	0.557	0.553
1 µM, coculture fibroblast: H6076	0.888	0.7912	0.7015	0.662	0.613	0.622	0.628	0.639	0.663
1 µM, coculture fibroblast: H6231	0.858	0.7788	0.65617	0.612	0.543	0.523	0.504	0.486	0.506
1 µM, coculture fibroblast: HADF	0.929	0.8409	0.7871	0.694	0.628	0.612	0.595	0.6	0.593
1 µM, coculture fibroblast: HCFa	0.89	0.81	0.738	0.67	0.628	0.63	0.615	0.626	0.609
1 µM, coculture fibroblast: HCPF	0.9115	0.7974	0.727	0.6629	0.5763	0.542	0.544	0.512	0.515
1 µM, coculture fibroblast: HHSteC	0.893	0.786	0.69	0.593	0.532	0.528	0.514	0.517	0.502
1 µM, coculture fibroblast: HMF	0.812	0.68	0.602	0.559	0.502	0.476	0.463	0.459	0.468
1 µM, coculture fibroblast: HPFa	0.944	0.919	0.776	0.672	0.599	0.57	0.536	0.522	0.5
1 µM, coculture fibroblast: HUF	0.882	0.786	0.737	0.611	0.564	0.53	0.507	0.521	0.526
1 µM, coculture fibroblast: Hs27A	0.903	0.864	0.775	0.685	0.631	0.619	0.606	0.612	0.59
1 µM, coculture fibroblast: Hs343T	0.862	0.716	0.631	0.603	0.514	0.488	0.468	0.468	0.49
1 µM, coculture fibroblast: WS1	0.82	0.69	0.648	0.5339	0.4654	0.445	0.424	0.433	0.442
